In publication PMC11316225:
No constants are given. Whether binding was seen depends on the method and setting. In cells and extracts the contact can be indirect.

Chains of the proteins cited; added tags and fusions are not shown. Residues count along the entry.
UniProt Q8NE86, residues 51-351: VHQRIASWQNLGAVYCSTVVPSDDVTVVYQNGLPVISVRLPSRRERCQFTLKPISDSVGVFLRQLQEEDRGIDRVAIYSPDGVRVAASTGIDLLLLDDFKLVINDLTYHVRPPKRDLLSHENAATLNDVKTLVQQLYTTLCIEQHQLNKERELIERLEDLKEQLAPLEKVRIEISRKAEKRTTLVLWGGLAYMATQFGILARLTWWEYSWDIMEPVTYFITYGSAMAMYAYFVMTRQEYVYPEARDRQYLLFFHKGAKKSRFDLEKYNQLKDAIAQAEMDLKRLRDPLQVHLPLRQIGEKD

Legend:
[1] = target: T1, CHCHD2 (as immunoprecipitated in the test for MCU and MCUR) (UniProt Q9Y6H1); experiment: co-IP; immunoprecipitation of CHCHD2 after chemical cross-linking; cells not given
T1 sequence: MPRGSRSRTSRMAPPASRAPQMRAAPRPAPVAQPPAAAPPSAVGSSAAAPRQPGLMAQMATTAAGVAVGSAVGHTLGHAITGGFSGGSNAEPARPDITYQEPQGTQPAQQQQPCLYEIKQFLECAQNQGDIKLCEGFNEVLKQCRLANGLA

[2] = target: T1, CHCHD2 (as immunoprecipitated in the test for MCU and MCUR); experiment: co-IP; immunoprecipitation of CHCHD2, blot for MCU and MCUR; cells not given

- binding [1]: no binding
- binding [2]: no binding
Substance: mitochondrial calcium uniporter (from UniProt Q8NE86 51-351)
